Experimental data taken from the supplement of paper PMC4604168 (melanoma cell lines).
Some of the results follow. Single values are uncertain, as repeats are few or missing.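 The apoptosis fraction was the count of cleaved-PARP antibody-stained nuclei relative to all DNA-stained nuclei, imaged in 1,536-well plates. Screening doses were set so most cells survived, and baseline and induced cleaved-PARP levels vary greatly across cell lines.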

Legend:
Assay in all cases: cleaved PARP positive nuclei fraction relative to DMSO control; melanoma cells; higher = more apoptosis
Conditions in all cases: library dose: low library concentration; 72 h
COLO792 = test system: COLO792
COLO800 = test system: COLO800
COLO829 = test system: COLO829
G361 = test system: G361
IPC-298 = test system: IPC-298
IST-MEL1 = test system: IST-MEL1
LB2518-MEL = test system: LB2518-MEL
LOXIMVI = test system: LOXIMVI
MEL-HO = test system: MEL-HO

Row | Compound | cleaved PARP positive nuclei fraction (COLO792) [%] | cleaved PARP positive nuclei fraction (COLO800) [%] | cleaved PARP positive nuclei fraction (COLO829) [%] | cleaved PARP positive nuclei fraction (G361) [%] | cleaved PARP positive nuclei fraction (IPC-298) [%] | cleaved PARP positive nuclei fraction (IST-MEL1) [%] | cleaved PARP positive nuclei fraction (LB2518-MEL) [%] | cleaved PARP positive nuclei fraction (LOXIMVI) [%] | cleaved PARP positive nuclei fraction (MEL-HO) [%]
1 | C[C@]12O[C@H](C[C@]1(O)CO)n1c3ccccc3c3c4c(c5c6ccccc6n2c5c31)CNC4=O [Lestaurtinib] + NCC(=O)Nc1ccc(-n2nc(C(F)(F)F)cc2-c2ccc3c(ccc4ccccc43)c2)cc1 [OSU03012] (first compound 0.004 µM, partner dose 1 µM) | 38.6 | 51.9 | 93.7 | 137 | 68.6 | 39.6 | 109 | 81.7 | 41
2 | C[C@]12O[C@H](C[C@]1(O)CO)n1c3ccccc3c3c4c(c5c6ccccc6n2c5c31)CNC4=O [Lestaurtinib] + Cn1cncc1[C@@](N)(c1ccc(Cl)cc1)c1ccc2c(c1)c(-c1cccc(Cl)c1)cc(=O)n2C [tipifarnib] (first compound 0.004 µM, partner dose 0.01 µM) | 126 | 62.5 | 60.8 | 61.9 | 244 | 100 | 117 | 42.4 | 68.8
3 | Cn1cc(C2=C(c3cn(C4CCN(Cc5ccccn5)CC4)c4ccccc34)C(=O)NC2=O)c2ccccc21 [Enzastaurin] + CN(NC(=O)CC(=O)NN(C)C(=S)c1ccccc1)C(=S)c1ccccc1 [STA4783] (first compound 0.8 µM, partner dose 0.006 µM) | 179 | 89.8 | 152 | 133 | 49 | 109 | 75.9 | 141 | 278
4 | C[C@]12O[C@H](C[C@]1(O)CO)n1c3ccccc3c3c4c(c5c6ccccc6n2c5c31)CNC4=O [Lestaurtinib] + CC(C)(C)c1cnc(CSc2cnc(NC(=O)C3CCNCC3)s2)o1 [SNS-032] (first compound 0.004 µM, partner dose 0.01 µM) | 70.7 | 290 | 77 | 148 | 47 | 95 | 51.7 | 94.3 | 64.2
5 | C[C@]12O[C@H](C[C@]1(O)CO)n1c3ccccc3c3c4c(c5c6ccccc6n2c5c31)CNC4=O [Lestaurtinib] + CN(C)S(=O)(=O)c1ccc2c(c1)/C(=C/c1cc3c([nH]1)CCCC3)C(=O)N2 [SU6656] (first compound 0.004 µM, partner dose 0.4 µM) | 161 | 106 | 104 | 50.2 | 96.4 | 34.3 | 53.4 | 34.3 | 34
6 | C[As](C)SC[C@H](NC(=O)CC[C@H](N)C(=O)O)C(=O)NCC(=O)O [Darinaparsin] + CC(C)(C)c1cnc(CSc2cnc(NC(=O)C3CCNCC3)s2)o1 [SNS-032] (first compound 0.4 µM, partner dose 0.01 µM) | 107 | 80.2 | 133 | 109 | 119 | 141 | 144 | 328 | 64.3
7 | N.N.[Cl][Pt][Cl] [cisplatin] + C[C@@H]1CCN(C(=O)CC#N)C[C@@H]1N(C)c1ncnc2[nH]ccc12 [CP690550] (first compound 1.6 µM, partner dose 1 µM) | 111 | 34 | 122 | 100 | 181 | 66.4 | 101 | 21.9 | 128
8 | C[As](C)SC[C@H](NC(=O)CC[C@H](N)C(=O)O)C(=O)NCC(=O)O [Darinaparsin] + COc1cc(Nc2ncc(F)c(Nc3ccc4c(n3)NC(=O)C(C)(C)O4)n2)cc(OC)c1OC [Tamatinib] (first compound 0.4 µM, partner dose 0.4 µM) | 244 | 68.8 | 145 | 104 | 238 | 98.1 | 198 | 194 | 144
9 | C[C@]12O[C@H](C[C@]1(O)CO)n1c3ccccc3c3c4c(c5c6ccccc6n2c5c31)CNC4=O [Lestaurtinib] + O=C(O)c1ccc(-c2c[nH]c3ncc(-c4ccccc4)cc23)cc1C1CCCC1 [GSK650394] (first compound 0.004 µM, partner dose 0.16 µM) | 153 | 69.3 | 118 | 88.4 | 102 | 179 | 101 | 51 | 50.3
10 | N.N.[Cl][Pt][Cl] [cisplatin] + OCCn1cc(-c2cnc3nnn(Cc4ccc5ncccc5c4)c3n2)cn1 [PF04217903] (first compound 1.6 µM, partner dose 1 µM) | 165 | 126 | 233 | 134 | 30.9 | 141 | 47.5 | 61.2 | 45.4
11 | C[As](C)SC[C@H](NC(=O)CC[C@H](N)C(=O)O)C(=O)NCC(=O)O [Darinaparsin] + C[C@@H]1CCN(C(=O)CC#N)C[C@@H]1N(C)c1ncnc2[nH]ccc12 [CP690550] (first compound 0.4 µM, partner dose 1 µM) | 88.9 | 63.9 | 69.3 | 70.1 | 42.8 | 94 | 47.4 | 203 | 199
12 | C[As](C)SC[C@H](NC(=O)CC[C@H](N)C(=O)O)C(=O)NCC(=O)O [Darinaparsin] + Cc1ccc(NC(=O)c2cccc(N(C)C)c2)cc1NC(=O)c1ccc(O)cc1 [ZM336372] (first compound 0.4 µM, partner dose 2 µM) | 29.1 | 49.4 | 70.7 | 110 | 60.6 | 62 | 99.9 | 184 | 31.6
13 | C[As](C)SC[C@H](NC(=O)CC[C@H](N)C(=O)O)C(=O)NCC(=O)O [Darinaparsin] + Cn1cncc1[C@@](N)(c1ccc(Cl)cc1)c1ccc2c(c1)c(-c1cccc(Cl)c1)cc(=O)n2C [tipifarnib] (first compound 0.4 µM, partner dose 0.01 µM) | 95.1 | 126 | 78.1 | 194 | 47.3 | 222 | 54.8 | 53.1 | 131
14 | C[As](C)SC[C@H](NC(=O)CC[C@H](N)C(=O)O)C(=O)NCC(=O)O [Darinaparsin] + Cc1cc(N2CCOCC2)cc2[nH]c(-c3c(NC[C@@H](O)c4cccc(Cl)c4)cc[nH]c3=O)nc12 [BMS536924] (first compound 0.4 µM, partner dose 0.2 µM) | 92.3 | 152 | 208 | 90.2 | 137 | 33.3 | 102 | 62.5 | 72.3
15 | C[As](C)SC[C@H](NC(=O)CC[C@H](N)C(=O)O)C(=O)NCC(=O)O [Darinaparsin] + NCC(=O)Nc1ccc(-n2nc(C(F)(F)F)cc2-c2ccc3c(ccc4ccccc43)c2)cc1 [OSU03012] (first compound 0.4 µM, partner dose 1 µM) | 44.5 | 165 | 134 | 29.8 | 65.3 | 258 | 84.2 | 106 | 71.2
16 | Cn1cc(C2=C(c3cn(C4CCN(Cc5ccccn5)CC4)c4ccccc34)C(=O)NC2=O)c2ccccc21 [Enzastaurin] + CC1(C)NC(=O)N(c2ccc([N+](=O)[O-])c(C(F)(F)F)c2)C1=O [nilutamide] (first compound 0.8 µM, partner dose 1 µM) | 153 | 209 | 143 | 89.7 | 60.7 | 187 | 44.7 | 74.5 | 121
17 | C[C@]12O[C@H](C[C@]1(O)CO)n1c3ccccc3c3c4c(c5c6ccccc6n2c5c31)CNC4=O [Lestaurtinib] + CN(NC(=O)CC(=O)NN(C)C(=S)c1ccccc1)C(=S)c1ccccc1 [STA4783] (first compound 0.004 µM, partner dose 0.006 µM) | 138 | 92.1 | 80.9 | 67.3 | 62.1 | 160 | 108 | 54.8 | 77.9
18 | N.N.[Cl][Pt][Cl] [cisplatin] + CO[C@@H]1[C@H](N(C)C(=O)c2ccccc2)C[C@H]2O[C@]1(C)n1c3ccccc3c3c4c(c5c6ccccc6n2c5c31)C(=O)NC4 [Midostaurin] (first compound 1.6 µM, partner dose 0.08 µM) | 93.5 | 72.4 | 118 | 133 | 46.6 | 366 | 98.6 | 68.2 | 153
19 | N.N.[Cl][Pt][Cl] [cisplatin] + CN(NC(=O)CC(=O)NN(C)C(=S)c1ccccc1)C(=S)c1ccccc1 [STA4783] (first compound 1.6 µM, partner dose 0.006 µM) | 149 | 58.5 | 83.1 | 129 | 43.5 | 22 | 49.1 | 85.7 | 172
20 | Cn1cc(C2=C(c3cn(C4CCN(Cc5ccccn5)CC4)c4ccccc34)C(=O)NC2=O)c2ccccc21 [Enzastaurin] + NC(=O)Nc1cc(-c2cccc(F)c2)sc1C(=O)N[C@H]1CCCNC1 [AZD7762] (first compound 0.8 µM, partner dose 0.02 µM) | 61.8 | 108 | 134 | 76.8 | 171 | 63.5 | 55.9 | 123 | 124
21 | Cn1cc(C2=C(c3cn(C4CCN(Cc5ccccn5)CC4)c4ccccc34)C(=O)NC2=O)c2ccccc21 [Enzastaurin] + C=CCn1c(=O)c2cnc(Nc3ccc(N4CCN(C)CC4)cc3)nc2n1-c1cccc(C(C)(C)O)n1 [MK1775] (first compound 0.8 µM, partner dose 0.02 µM) | 14.2 | 54.7 | 67.8 | 104 | 19.8 | 96.6 | 46.5 | 103 | 65
22 | Cn1cc(C2=C(c3cn(C4CCN(Cc5ccccn5)CC4)c4ccccc34)C(=O)NC2=O)c2ccccc21 [Enzastaurin] + COc1cc2c(Oc3ccc4[nH]c(C)cc4c3F)ncnc2cc1OCCCN1CCCC1 [cediranib] (first compound 0.8 µM, partner dose 0.4 µM) | 214 | 116 | 113 | 81.5 | 83.2 | 129 | 109 | 128 | 21.6
23 | Cn1cc(C2=C(c3cn(C4CCN(Cc5ccccn5)CC4)c4ccccc34)C(=O)NC2=O)c2ccccc21 [Enzastaurin] + COc1cc(Nc2ncc(F)c(Nc3ccc4c(n3)NC(=O)C(C)(C)O4)n2)cc(OC)c1OC [Tamatinib] (first compound 0.8 µM, partner dose 0.4 µM) | 117 | 42.6 | 174 | 96.6 | 59 | 53.6 | 58.6 | 65.1 | 68.8
24 | N.N.[Cl][Pt][Cl] [cisplatin] + COc1cc(Nc2ncc(F)c(Nc3ccc4c(n3)NC(=O)C(C)(C)O4)n2)cc(OC)c1OC [Tamatinib] (first compound 1.6 µM, partner dose 0.4 µM) | 297 | 78.9 | 124 | 144 | 93.8 | 49.4 | 92.6 | 36.7 | 247
25 | C[C@]12O[C@H](C[C@]1(O)CO)n1c3ccccc3c3c4c(c5c6ccccc6n2c5c31)CNC4=O [Lestaurtinib] + O=C(CCCCCCC(=O)Nc1ccccc1)NO [vorinostat] (first compound 0.004 µM, partner dose 0.08 µM) | 23.3 | 48.8 | 84.7 | 86.2 | 84.2 | 131 | 86 | 30.4 | 74.3
26 | C[As](C)SC[C@H](NC(=O)CC[C@H](N)C(=O)O)C(=O)NCC(=O)O [Darinaparsin] + O=C(Nc1cccc(Cl)c1)Nc1ncc(CCNc2ncnc3ccsc23)s1 [SNS314] (first compound 0.4 µM, partner dose 0.0008 µM) | 166 | 86 | 44.6 | 48.8 | 238 | 303 | 111 | 149 | 208
27 | C[As](C)SC[C@H](NC(=O)CC[C@H](N)C(=O)O)C(=O)NCC(=O)O [Darinaparsin] + CN(NC(=O)CC(=O)NN(C)C(=S)c1ccccc1)C(=S)c1ccccc1 [STA4783] (first compound 0.4 µM, partner dose 0.006 µM) | 131 | 47.7 | 88.3 | 184 | 355 | 248 | 252 | 94.3 | 67.2

As entered above.
cleaved PARP positive nuclei fraction (MEL-HO) [%] with C[As](C)SC[C@H](NC(=O)CC[C@H](N)C(=O)O)C(=O)NCC(=O)O [Darinaparsin] + NCC(=O)Nc1ccc(-n2nc(C(F)(F)F)cc2-c2ccc3c(ccc4ccccc43)c2)cc1 [OSU03012] (first compound 0.4 µM, partner dose 1 µM) is entered as 71.2
cleaved PARP positive nuclei fraction (LOXIMVI) [%] with C[As](C)SC[C@H](NC(=O)CC[C@H](N)C(=O)O)C(=O)NCC(=O)O [Darinaparsin] + O=C(Nc1cccc(Cl)c1)Nc1ncc(CCNc2ncnc3ccsc23)s1 [SNS314] (first compound 0.4 µM, partner dose 0.0008 µM) is entered as 149
